Laboratory results published in US20030100052.

What was measured:
[1] = test system: T1, BsmBI methylase (M.BsmBI) (Bacillus stearothermophilus B61); test: activity in cells; details: plasmids carrying bsmBIM become fully resistant to BsmBI cleavage; BsmBI sites in vector confirmed intact; protein in cells; only the site is given
T1 sequence: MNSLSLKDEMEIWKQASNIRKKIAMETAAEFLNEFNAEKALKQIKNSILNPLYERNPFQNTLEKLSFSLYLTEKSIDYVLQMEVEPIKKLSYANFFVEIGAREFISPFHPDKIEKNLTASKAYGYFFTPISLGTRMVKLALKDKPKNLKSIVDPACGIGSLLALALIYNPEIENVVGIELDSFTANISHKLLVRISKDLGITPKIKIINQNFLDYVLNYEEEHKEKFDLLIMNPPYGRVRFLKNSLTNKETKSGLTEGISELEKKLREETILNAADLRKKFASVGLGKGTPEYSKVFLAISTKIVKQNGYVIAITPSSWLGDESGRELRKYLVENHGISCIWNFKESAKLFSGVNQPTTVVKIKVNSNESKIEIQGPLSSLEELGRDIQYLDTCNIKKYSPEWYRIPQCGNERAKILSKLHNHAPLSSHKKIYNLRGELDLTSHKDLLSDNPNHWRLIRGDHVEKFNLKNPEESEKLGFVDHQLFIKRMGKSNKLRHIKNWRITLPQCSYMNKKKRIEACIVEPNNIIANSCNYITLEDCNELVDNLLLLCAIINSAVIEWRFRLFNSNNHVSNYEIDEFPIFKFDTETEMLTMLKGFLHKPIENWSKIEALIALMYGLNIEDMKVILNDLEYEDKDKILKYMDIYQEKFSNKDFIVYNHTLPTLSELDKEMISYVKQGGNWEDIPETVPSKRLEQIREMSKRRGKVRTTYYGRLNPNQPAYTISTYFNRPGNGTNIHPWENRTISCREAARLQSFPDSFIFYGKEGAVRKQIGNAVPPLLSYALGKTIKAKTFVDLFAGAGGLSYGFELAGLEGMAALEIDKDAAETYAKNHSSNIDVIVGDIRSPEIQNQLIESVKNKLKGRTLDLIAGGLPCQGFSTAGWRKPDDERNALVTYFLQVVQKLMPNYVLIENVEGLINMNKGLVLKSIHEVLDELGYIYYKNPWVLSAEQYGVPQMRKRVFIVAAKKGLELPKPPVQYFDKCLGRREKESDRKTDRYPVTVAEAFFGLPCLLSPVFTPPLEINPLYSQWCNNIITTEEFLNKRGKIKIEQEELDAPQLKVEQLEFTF

[2] = test system: T2, BsmBI restriction endonuclease (R.BsmBI) (Bacillus stearothermophilus B61); test: enzyme reaction in vitro; details: methylated by M.BsmBI (N6A and C5 methylase fusion), positions not given; native BsmBI, 30 units per 1 ug plasmid, 1 h 55 C; no cleavage of M.BsmBI-modified plasmid; binding itself not measured; purified recombinant protein; only the site is given
T2 sequence: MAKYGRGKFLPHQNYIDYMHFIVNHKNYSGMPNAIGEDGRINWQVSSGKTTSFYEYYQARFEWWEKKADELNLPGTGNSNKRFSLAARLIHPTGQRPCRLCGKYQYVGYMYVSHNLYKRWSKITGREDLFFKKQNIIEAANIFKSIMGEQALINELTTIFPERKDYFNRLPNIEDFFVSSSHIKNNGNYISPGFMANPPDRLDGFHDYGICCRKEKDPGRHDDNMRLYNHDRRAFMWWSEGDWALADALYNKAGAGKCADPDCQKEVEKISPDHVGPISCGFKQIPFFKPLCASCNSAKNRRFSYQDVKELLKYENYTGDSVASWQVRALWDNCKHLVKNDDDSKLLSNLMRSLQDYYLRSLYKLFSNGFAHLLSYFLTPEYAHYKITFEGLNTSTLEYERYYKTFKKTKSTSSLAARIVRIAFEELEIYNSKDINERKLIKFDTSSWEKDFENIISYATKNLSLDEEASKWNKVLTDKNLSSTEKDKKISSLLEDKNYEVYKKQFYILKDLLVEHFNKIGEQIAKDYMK

Row | Sequence | activity on this sequence [1] | activity on this sequence [2]
1 | CGTCTC (double strand) | active | –
2 | CGTCTC (double strand) [BsmBI recognition site in plasmid modified by M.BsmBI] | – | not active

For some assays here: Negatives hold for the conditions tested. Where a protein sequence is shown, tags need not be part of it.
